These results are taken from publication PMC5461640 (Pharmacology Research & Perspectives, 2017).

The data set in a line: peptide synthesis. Particulars: for crude HPLC purity: 220 nm.

HELM strings list residues between dots; [ac] is acetyl, [am] amide, other brackets name non-standard units.

Consider “PEPTIDE1{[Pal].C.Y.I.Q.N.C.P.L.G.[am]}$PEPTIDE1,PEPTIDE1,2:R3-7:R3$$$V2.0”, for which, under “lipidation step”, the step yield is given as 95% and the “crude HPLC purity” value stood at 97.8%.
As to “PEPTIDE1{[Pal].C.Y.I.Q.N.C.P.L.G.[am]}|PEPTIDE2{[Pal]}$PEPTIDE1,PEPTIDE1,2:R3-7:R3|PEPTIDE1,PEPTIDE2,3:R3-1:R2$$$V2.0”, the step yield (lipidation step) stood at 79%. The “final HPLC purity” value (lipidation step, HPLC (Kinetex 1.7 um C8, 0.05% formic acid water/MeCN, 220 nm)) was found to be 98.2%.
As for “PEPTIDE1{C.Y.I.Q.N.C.P.L.G.[am]}|PEPTIDE2{[Pal]}$PEPTIDE1,PEPTIDE1,1:R3-6:R3|PEPTIDE1,PEPTIDE2,2:R3-1:R2$$$V2.0”, under “late stage modification step”, the step yield is 85% and the “crude HPLC purity” value amounted to 98.8%.
